According to paper PMC10937362:
No constants are given. Whether binding was seen depends on the method and setting. Binding seen in cells or lysates may run through a third protein. Some results given as binding are weak or reduced against the parent protein; the word gives no strength.

Chains of the proteins cited; added tags and fusions are not shown. Residues count along the entry.
UniProt P05107, residues 23-769: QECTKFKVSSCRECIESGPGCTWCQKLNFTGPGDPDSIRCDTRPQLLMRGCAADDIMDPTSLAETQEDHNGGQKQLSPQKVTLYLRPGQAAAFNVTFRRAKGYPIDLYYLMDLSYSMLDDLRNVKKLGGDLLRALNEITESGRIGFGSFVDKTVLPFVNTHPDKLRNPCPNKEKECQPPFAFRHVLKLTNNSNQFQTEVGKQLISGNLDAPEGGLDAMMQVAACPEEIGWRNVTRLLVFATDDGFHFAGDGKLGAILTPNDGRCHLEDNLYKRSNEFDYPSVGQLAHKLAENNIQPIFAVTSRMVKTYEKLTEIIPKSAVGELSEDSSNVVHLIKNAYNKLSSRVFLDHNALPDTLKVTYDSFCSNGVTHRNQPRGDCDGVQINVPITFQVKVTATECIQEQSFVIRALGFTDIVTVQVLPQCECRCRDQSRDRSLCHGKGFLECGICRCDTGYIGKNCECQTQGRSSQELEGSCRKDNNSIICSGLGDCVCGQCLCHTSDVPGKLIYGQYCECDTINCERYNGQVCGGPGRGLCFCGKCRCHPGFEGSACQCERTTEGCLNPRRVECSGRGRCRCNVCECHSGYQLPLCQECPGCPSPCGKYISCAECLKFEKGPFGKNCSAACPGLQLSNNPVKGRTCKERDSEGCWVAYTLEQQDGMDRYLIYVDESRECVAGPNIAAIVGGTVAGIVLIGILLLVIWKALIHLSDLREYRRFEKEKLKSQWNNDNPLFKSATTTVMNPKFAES
UniProt O75563: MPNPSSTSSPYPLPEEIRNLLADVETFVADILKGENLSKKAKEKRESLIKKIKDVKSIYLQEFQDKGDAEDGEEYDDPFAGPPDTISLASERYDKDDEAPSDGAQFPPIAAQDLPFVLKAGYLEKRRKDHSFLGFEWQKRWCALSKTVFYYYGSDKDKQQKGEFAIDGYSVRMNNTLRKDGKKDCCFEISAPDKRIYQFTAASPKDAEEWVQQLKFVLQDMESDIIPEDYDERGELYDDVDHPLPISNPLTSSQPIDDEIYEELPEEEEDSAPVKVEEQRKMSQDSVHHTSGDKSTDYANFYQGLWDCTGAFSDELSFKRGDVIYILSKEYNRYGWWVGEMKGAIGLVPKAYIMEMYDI

What was measured:
[1] = molecular target: CD18 (human (endogenous in primary neutrophils and NB4)) (UniProt P05107); assay: co-IP; CD18 precipitated with antibody IB4 on Protein G Dynabeads from lysates of human primary neutrophils (two donors) under resting conditions, overnight 4°C; immunoblot for CD18 and SKAP2
[2] = molecular target: CD18 (human (endogenous in primary neutrophils and NB4)) (UniProt P05107); assay: co-IP; CD18 precipitated with antibody IB4 on Protein G Dynabeads from lysates of NB4 Scr, KINDLIN3KO or SKAP2KO neutrophils at steady state, overnight 4°C; immunoblot for CD18, KINDLIN3, TALIN1 and SKAP2

With “Src kinase-associated phosphoprotein 2 (SKAP2) (from UniProt O75563 1-359)” the binding [1] was “binds” and the binding [2] was “binds”.
